PubChem BioAssay AID504467 (National Center for Advancing Translational Sciences (NCATS), 2011)
Among all 330,000 compounds or so, about 7,700 (2.3%) were called active. Inconclusive means that the source gave no clear call. Such entries were picked first, then a sample of the others. Calls follow the shape of the dose curve; as a rule, active = well fitted inhibition curve with a large enough effect; inconclusive = small, poorly fitted or top-dose-only effect, or effect the other way; inactive = flat fitted curve, though single readings scatter. Potencies of inconclusive entries are doubtful fits and often do not repeat.

assay: qHTS screen for small molecules that inhibit ELG1-dependent DNA repair in human embryonic kidney (HEK293T) cells expressing luciferase-tagged ELG1; conditions: HEK293T ELG1-luciferase reporter, luminescence, 16 h, DNA damage induced by 5-fluorouridine; series mostly up to 46.1 µM; also: nearly all actives have a fitted effect of over 55% in size
Outline: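 Cells (2,000 per well) received 5-fluorouridine plus test compound or DMSO and were incubated 16 hr at 37 °C, 5% CO2. Luciferase activity was read by luminescence 30 min after ONE-Glo addition; signal suppression marked inhibition of damage-induced ELG1 function.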
Potency is read from the fitted curve at half-maximal effect.

Row | Structure (SMILES) | Potency
1 | CS(=O)(=O)c1ccc(C(=O)OCC(=O)c2ccc(Cl)s2)cc1 | inconclusive: 4.11 µM [activator, single point]
2 | CCOc1ccc2nc(SC3CC(=O)N(c4ccc(OC)cc4)C3=O)sc2c1 (centres undefined) | inconclusive: 9.2 µM [activator, partial curve]
3 | COc1ccc(OC)c(-c2csc(NC(=O)Cc3cc(OC)c(OC)c(OC)c3)n2)c1 | inconclusive: 25.9 µM [inhibitor, partial curve]
4 | COc1cc(/C=N/NC2=NS(=O)(=O)c3ccccc32)cc(OC)c1OC | inactive
5 | O=C(NC1CCN(CCc2c[nH]c3ccccc23)CC1)c1ccccc1 | inactive
6 | Cn1c2ccccc2c2nnc(SCC(N)=O)nc21 | inactive
7 | CN(C)c1ccc(C=NCC2COc3ccccc3O2)cc1 (centres undefined) | inactive
8 | COc1ccc(C)cc1NC1=C(Cl)C(=O)N(C2CCCCC2)C1=O | inconclusive: 8.91 µM [inhibitor, single point]
9 | Cc1occc1-c1nnc(SCC(=O)c2c(N)n(C3CC3)c(=O)[nH]c2=O)n1C | inconclusive: 29.1 µM [activator, single point]
10 | CC(C)(C)OC(=O)C[C@H]1C/C=C\C[C@@H](CC(=O)N(CCO)Cc2ccccc2)C(=O)N[C@@H](Cc2ccccc2)COC1=O | inconclusive: 14.6 µM [inhibitor, partial curve, poor fit]
11 | COc1cccc(-c2nnc(NC(=O)c3cccs3)s2)c1 | inconclusive: 16.4 µM [activator, partial curve]
12 | CCOC(=O)c1sc2nc(N3CCOCC3)c3c(c2c1N)CC(C(C)C)OC3 (centres undefined) | inconclusive: 0.73 µM [inhibitor, full curve]
13 | O=C(CCn1c(=O)c2sccc2n(CC(=O)NCc2ccco2)c1=O)NCc1ccccc1 | inactive
14 | Cc1cc(C)c(C)c(OCC(O)CN2CCN(c3ccccn3)CC2)c1 (centres undefined) | inactive
15 | COc1ccc(/C=N/NC(=O)c2ccncc2)cc1CSc1nc2ccccc2s1 | inconclusive: 18.4 µM [inhibitor, partial curve]
16 | CCC1(C)Cc2c(sc3[nH]c(=S)[nH]c(=S)c23)CO1 (centres undefined) | inconclusive: 7.3 µM [activator, partial curve, poor fit]
17 | Cc1ccc(NC(=O)O/N=C/c2ccc(N(C)C)cc2)cc1 | inconclusive: 23.1 µM [activator, single point]
18 | CC(C)c1cc(C(=O)NCc2ccco2)no1 | inconclusive: 23.1 µM [activator, partial curve]
19 | O=C(Nc1ccc(NC(=O)c2sc3ccccc3c2Cl)cc1Cl)c1ccco1 | inconclusive: 29.1 µM [activator, partial curve, poor fit]
20 | O=S(=O)(c1ccc(F)cc1)N1CCN(S(=O)(=O)c2cccs2)CC1 | inactive
21 | CCOCCCNC(=S)NCCCNc1nc2c(C)c(C)ccc2cc1C#N | inconclusive: 18.3 µM [inhibitor, single point]
22 | CCCNC(=O)c1ccc2c(c1)S(=O)(=O)c1ccccc1C2=O | inconclusive: 20.6 µM [inhibitor, partial curve, poor fit]

Row | Structure (SMILES) | Potency
23 | C=CCn1c(SCC(=O)Nc2ccc3c(c2)OCO3)nnc1-c1ccccc1 | inconclusive: 29.1 µM [inhibitor, partial curve, poor fit]
24 | CCOc1ccccc1C(=O)OCC(=O)Nc1cccc(S(=O)(=O)N2CCCC2)c1 | inconclusive: 29.1 µM [inhibitor, single point]
25 | COc1ccc(CN(C)CC(=O)Nc2cc(OC)c([N+](=O)[O-])cc2C)c(OC)c1 | active: 16.4 µM
26 | CC(=O)c1sc(Nc2ccccn2)nc1C | inconclusive: 18.4 µM [activator, partial curve]
27 | NC(=S)Nc1ccc(Cl)c(Cl)c1 | inactive
28 | CCCCOC(=O)C1=C(C)NC(=O)NC1c1cccc([N+](=O)[O-])c1 (centres undefined) | active: 6.51 µM
29 | CC(NC(=O)Cn1ccsc1=N)C12CC3CC(CC(C3)C1)C2 (centres undefined) | inactive
30 | Cc1ccc2nc(-c3ccc(NS(=O)(=O)c4ccccc4)cc3)sc2c1 | inconclusive: 29.1 µM [activator, single point]
31 | COc1cc(/C=C2/CCC/C(=C\c3cc(O)c(OC)c(Cl)c3)C2=O)cc(Cl)c1O | active: 14.6 µM
32 | COc1cccc(-n2ccnc2SCC(=O)Nc2nccs2)c1 | inconclusive: 6.51 µM [activator, partial curve, poor fit]
33 | COc1cc(/C=C2\SC(=S)N(CCC(=O)Nc3cccc(O)c3)C2=O)cc(OC)c1OC | inconclusive: 17.8 µM [inhibitor, partial curve, poor fit]
34 | Cn1c(N2CCN(C(=O)Nc3ccc(C(F)(F)F)cc3)CC2)nc2ccccc21 | inconclusive: 14.6 µM [inhibitor, partial curve]
35 | CCOC(=O)Cn1c(=NC(=O)C2COc3ccccc3O2)sc2cc(S(N)(=O)=O)ccc21 (centres undefined) | inactive
36 | CN1CCCC(OC(=O)c2ccc3c(c2)OCCO3)C1 (centres undefined) | inconclusive: 20.6 µM [activator, partial curve, poor fit]
37 | CC(C)Cn1nc(C(=O)N2CCc3ccccc32)c2ccccc2c1=O | inconclusive: 20.6 µM [inhibitor, single point]
38 | O=C(NCCc1ccccc1)C1CCC(Cn2c(=O)c3ccccc3n(Cc3cccnc3)c2=O)CC1 (centres undefined) | inconclusive: 32.6 µM [inhibitor, single point]
39 | Cc1cc(C)nc(N/N=C/c2ccc([N+](=O)[O-])o2)n1 | inconclusive: 23.1 µM [inhibitor, single point]
40 | C/C=C/c1ccc(OC)c(OC(C)=O)c1 | inactive
41 | Cc1[nH][nH]c(=O)c1C(c1ccc(-c2ccc(C(=O)O)cc2)o1)c1c(C)[nH][nH]c1=O | inactive
42 | CCn1c(NC(=O)/C=C/c2ccc(F)cc2)nc2ccccc21 | inconclusive: 29.1 µM [inhibitor, single point]
43 | COc1cc2ncnc(NCc3ccccc3C)c2cc1OC | inconclusive: 11.6 µM [inhibitor, partial curve]
44 | COC(=O)N/N=C/c1ccc([N+](=O)[O-])s1 | inconclusive: 6.51 µM [inhibitor, partial curve, poor fit]

A different layout for 2 compounds above.
CCOc1ccccc1C(=O)OCC(=O)Nc1cccc(S(=O)(=O)N2CCCC2)c1
  Potency: inconclusive: 29.1 µM [inhibitor, single point]
O=C(NCCc1ccccc1)C1CCC(Cn2c(=O)c3ccccc3n(Cc3cccnc3)c2=O)CC1 (centres undefined)
  Potency: inconclusive: 32.6 µM [inhibitor, single point]
